Data taken from PubChem BioAssay AID743020, deposited by Broad Institute (2013).

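HEK293 cells carrying a CMV promoter luciferase reporter, with luminescence read 24 h after treatment to check for nonspecific loss of reporter signal.
Percent change in reporter signal versus neutral control wells at the top tested concentration; more negative values mean stronger inhibition.
Inconclusive means the independent runs disagreed, the fit was flat at 30 to 70% inhibition, or the curve fit was poor.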

Values are in %.
All entries here are filed as inconclusive.
Only part of the assay is shown, chiefly results filed as inconclusive.

Compound,tested on / at,activity change (%)
FC(F)(F)c1nnc2c(Sc3ccccn3)nc3ccccc3n12,at 35 µM (top of the series),58.16
Cc1nn(-c2ccccc2)c(Cl)c1CN(C(=O)CCl)c1cccc2ccccc12,at 35 µM (top of the series),31.61
CC(C)C(=O)N1CCN(c2ccc(NC(=O)c3ccc([N+](=O)[O-])o3)cc2)CC1,at 35 µM (top of the series),44.53
C[C@@H]1CN([C@@H](C)CO)C(=O)c2cc(NC(=O)Nc3ccc(F)cc3)ccc2O[C@@H](C)CCCCO[C@@H]1CN(C)Cc1ccc(C(F)(F)F)cc1,at 35 µM (top of the series),-26.52
COC(=O)C1=C(C)N(Cc2ccc(C(F)(F)F)cc2)C(=NCc2ccccc2)NC1c1cccc(Cl)c1 (stereo not given),at 35 µM (top of the series),12.56
COc1cc(/C=N/NS(=O)(=O)c2ccc(C)cc2)ccc1OCc1cccc(C(=O)O)c1,at 16 µM (top of the series),55.68
Nc1nc(=S)c2ncn([C@@H]3O[C@H](CO)[C@@H](O)[C@H]3O)c2[nH]1,at 16 µM (top of the series),-52.63
O=S(=O)(NC1CCCCC1N1CCN(c2ccccc2F)CC1)c1ccccc1 (stereo not given),at 35 µM (top of the series),-47.62
Cc1ccc(S(=O)(=O)Nc2ccc3c(c2)C(=O)N([C@H](C)CO)C[C@H](C)[C@@H](CN(C)Cc2ccc(C(F)(F)F)cc2)OCCCC[C@H](C)O3)cc1,at 35 µM (top of the series),-68.98
COc1cc(-c2c(-c3cc(OC)c(OC)c(OC)c3)noc2C)ccc1F,at 35 µM (top of the series),-41.02
C[C@@H]1CCCCO[C@@H](CN(C)CC2CCCCC2)[C@H](C)CN([C@H](C)CO)C(=O)c2cc(NS(=O)(=O)c3ccc(Cl)cc3)ccc2O1,at 35 µM (top of the series),-43.59
O=c1[nH]c2ccccc2n1C1CCN(C(c2ccccc2OC(F)(F)F)c2nnnn2-c2ccc3c(c2)OCCO3)CC1 (stereo not given),at 35 µM (top of the series),-46.91
O=[N+]([O-])c1ccc2nc(SCc3cn4ccccc4n3)[nH]c2c1,at 35 µM (top of the series),19.3
CCOC(=O)c1c(-c2ccc(F)cc2)csc1NC(=O)CN1C(=O)NC2(CCCCC2C)C1=O (stereo not given),at 35 µM (top of the series),91.35
C[C@H](CO)N1C[C@H](C)[C@H](CN(C)Cc2ccc3c(c2)OCO3)OCCCC[C@H](C)Oc2ccc(NC(=O)Nc3ccc(C(F)(F)F)cc3)cc2C1=O,at 35 µM (top of the series),-2.233
CCS(=O)(=O)c1ncc(Cl)c(C(=O)Nc2ccc(C)cc2)n1,at 35 µM (top of the series),-23.45
O=C(NCCN1C(=O)S/C(=C\c2ccc(OC(F)F)cc2)C1=O)c1cnccn1,at 35 µM (top of the series),-43.26
C[C@@H]1CN([C@H](C)CO)C(=O)c2cc(NC(=O)CCC(F)(F)F)ccc2O[C@@H](C)CCCCO[C@@H]1CN(C)Cc1ccc(C(F)(F)F)cc1,at 35 µM (top of the series),-47.32
CC(C)N1CCc2c(sc(NC(=O)c3ccc([N+](=O)[O-])o3)c2C(N)=O)C1,at 35 µM (top of the series),5.534
CCOC(=O)N1CCC(NC(=O)c2ccc3c(c2)N=C(C)c2c(C)ccc(C)c2S3)CC1,at 35 µM (top of the series),-37.99
COc1ccc(C(=O)c2ccc(Cl)c([N+](=O)[O-])c2)cc1,at 35 µM (top of the series),-39.13
COc1ccc(-n2ncc(Cl)c(Cl)c2=O)cc1,at 35 µM (top of the series),6.67
O=C(Nc1cccc(-c2ccc(N3CCCCC3)nn2)c1)C(F)(F)F,at 35 µM (top of the series),-44.21
O=[N+]([O-])c1cc(-c2nnc(-c3ccccc3)o2)ccc1Oc1ccc(Cl)cc1,at 35 µM (top of the series),79.02
C[C@H]1CCCCO[C@@H](CN(C)Cc2ccc(C(F)(F)F)cc2)[C@@H](C)CN([C@@H](C)CO)C(=O)c2cc(NC(=O)Nc3ccc(F)cc3)ccc2O1,at 35 µM (top of the series),-54.36
Cc1cc(C)c2nc(SCC(=O)N3CC(=O)Nc4ccccc43)c(C#N)cc2c1,at 35 µM (top of the series),-36.77
COc1ccc(CC2C(=O)NC(C)C(=O)N(C)C3C(=O)N(C)C(Cc4ccc(O)c(c4)Oc4ccc(cc4)C3O)C(=O)NC(C)C(=O)NC(C)C(=O)N2C)cc1 (stereo not given),at 35 µM (top of the series),-75.06
O=C(CCl)N=c1sccn1Cc1cccc2ccccc12,at 35 µM (top of the series),-36.15

2 of the entries, repeated:

{"compound": "CCS(=O)(=O)c1ncc(Cl)c(C(=O)Nc2ccc(C)cc2)n1", "tested on / at": "at 35 µM (top of the series)", "activity change (%)": "-23.45"}
{"compound": "O=[N+]([O-])c1cc(-c2nnc(-c3ccccc3)o2)ccc1Oc1ccc(Cl)cc1", "tested on / at": "at 35 µM (top of the series)", "activity change (%)": "79.02"}